Data published in US20250082774A1, “PEPTIDE LINKERS COMPRISING TWO OR MORE PAYLOADS” (ARARIS BIOTECH AG, priority 2022, published 2025).

Experiments:
Type in all cases: biochemical
[1] = test system: native, glycosylated Trastuzumab antibody; assay: MTG conjugation to Trastuzumab, BisTris pH 7.5, 22 h (Examples 6 to 9); settings: MTG 8 U/mg, 5 molar equivalents, BisTris 50 mM pH 7.5, 22 hours 37° C., LCMS
[2] = test system: native, glycosylated Trastuzumab antibody; assay: MTG conjugation of Exatecan linker-payloads to Trastuzumab (Example 3); settings: MTG 10 U/mg, 7.5-12.5 molar equivalents, BisTris pH 6.6, 24 hours 37° C.; LCMS or RPLC
[3] = test system: native, fully glycosylated Trastuzumab antibody; assay: MTG conjugation of MMAE linker-payloads to Trastuzumab (Example 1); settings: MTG 5 U/mg, 5 molar equivalents linker-payload, Tris 50 mM pH 7.6, 24 hours 37° C.; LCMS
[4] = test system: native, fully glycosylated Polatuzumab; assay: MTG conjugation of MMAE linker-payloads to Polatuzumab (Example 2); settings: MTG 6-7.5 U/mg, 5 molar equivalents, Tris 50 mM pH 7.6, 24 hours 37° C.; LCMS
[5] = test system: native, fully glycosylated Enfortumab; assay: MTG conjugation of MMAE linker-payloads to Enfortumab (Example 2); settings: MTG 6-7.5 U/mg, 5 molar equivalents, Tris 50 mM pH 7.6, 24 hours 37° C.; LCMS
[6] = test system: native, glycosylated Trastuzumab antibody; assay: MTG conjugation to Trastuzumab at varying linker-payload molar equivalents (Example 10); settings: 3.5 mg/ml antibody, MTG 5 U/mg, Tris 50 mM pH 7.6, 24 hours 37° C.
[7] = 2 molar equivalents vs Trastuzumab
[8] = 5 molar equivalents vs Trastuzumab
[9] = 10 molar equivalents vs Trastuzumab
[10] = 20 molar equivalents vs Trastuzumab
[11] = 40 molar equivalents vs Trastuzumab
[12] = 80 molar equivalents vs Trastuzumab

“E(A-PABC-MMAE)-ARKAA-PABC-(MMAE)2: peptide linker (SEQ ID NO: 11) with three MMAE payloads; structure in FIG. 19 (EARKAA; acetyl, PABC, three MMAE payloads; Linker Sequence 11)” was tested, and the “Conjugation efficiency (%) to rastuzumab” value ([1]; DAR 6 or DAR 8 ADCs) was 99%.
In the case of “Exa-PABC-AA-C2-RKAA-PABC-Exa: peptide linker with Exatecan at N- and C-terminal end; structure in FIG. 14 (Exatecan-PABC at both termini; Linker Sequence 1)”, the “Conjugation efficiency (%) to Trastuzumab” value [2] is reported as 88%.
With “MMAE-PABC-AA-C2-RKAA-PABC-MMAE: peptide linker with MMAE at N- and C-terminal end; structure in FIG. 3 (MMAE-PABC at both termini; Linker Sequence 1)” the “Conjugation efficiency (%) to Trastuzumab” value [3] was 95%, the “Conjugation efficiency (%) to Polatuzumab” value [4] was 96% and the “Conjugation efficiency (%) to Enfortumab” value [5] was 96%.
In the case of “RKAA-PABC-(MMAE)2: peptide linker (SEQ ID NO: 1) with two MMAE payloads; structure in FIG. 1 (acetyl, PABC, two MMAE payloads; Linker Sequence 1)”, the “Conjugation efficiency (%) to Trastuzumab” value [3] is reported as 90%, the “Conjugation efficiency (%) to Polatuzumab” value [4] is reported as 91% and the “CE (%)” value [6, 7] is reported as 69%. The “CE (%)” value [6, 8] was 97%, the “CE (%)” value [6, 9] was 100% and the “CE (%)” value [6, 10] was 99%. For the same substance, the “CE (%)” value [6, 11] was 91%, the “CE (%)” value [6, 12] was 68% and the “Conjugation efficiency (%) to Trastuzumab” value ([1]; Example 9, peptide vs amino-PEG linker, DAR 4) was 95%. The “Conjugation efficiency (%) to Enfortumab” value [5] was 90%.
With “RKAA-PABC-PABC-(MMAE)2: peptide linker (SEQ ID NO: 1) with two MMAE payloads; structure in FIG. 2 (acetyl, PABC-PABC, two MMAE payloads; Linker Sequence 1)” the “Conjugation efficiency (%) to Trastuzumab” value [3] was 90%, the “Conjugation efficiency (%) to Polatuzumab” value [4] was 89% and the “Conjugation efficiency (%) to Enfortumab” value [5] was 92%.
“RKAAAAAA PABC-(Exa)2: peptide linker with two Exatecan payloads; structure in FIG. 8 (PABC, two Exatecan payloads)” was tested, and the “Conjugation efficiency (%) to Trastuzumab” value [2] was 95%.
With “RKAASGSG-PABC-(Exa)2: peptide linker with two Exatecan payloads; structure in FIG. 9 (N-acetyl; PABC, two Exatecan payloads)” the “Conjugation efficiency (%) to Trastuzumab” value [2] was 92%.
For “RKN(PABC-MMAE)A-PABC-MMAE: peptide linker (SEQ ID NO: 83) with two MMAE payloads; structure in FIG. 43 (RKNA; PABC, two MMAE payloads; Linker sequence 31)”, the “CE (%)” value [6, 7] was 50%, the “CE (%)” value [6, 8] was 82% and the “CE (%)” value [6, 9] was 84%. For the same substance, the “CE (%)” value [6, 10] was 56%, the “CE (%)” value [6, 11] was 19% and the “CE (%)” value [6, 12] was 2%.
